± gives the uncertainty stated by the source. Many entries were measured with a wide error.
Test: self-splicing fitness, log relative to wild type (ln ratio); higher = more splicing; Tetrahymena group I intron in knt gene, E. coli kanamycin selection, DiMSum; sequences stand for … in CUCUCU…GGAGGGAAAAGUUAUCAGGCAUGCACCUGGUAGCUAGUCUUUAAACCAAUAGAUUGCAUCGGUUUAAAAGGCAAGACCGUCAAAUUGCGGGAAAGGGGUCAACAGCCGUUCAGUACCAAGUCUCAGGGGAAACUUUGAGAUGGCCUUGCAAAGGGUAUGGUAAUAAGCUGACGGACAUGGUCCUAACCACGCAGCCAAGUCCUAAGUCAACAGAUCUUCUGUUGAUAUGGAUGCAGUUCACAGACUAAAUGUCGGUCGGGGAAGAUGUAUUCUUCUCAUAAGAUAUAGUCGGACCUCUCCUUAAUGGGAGCUAGCGGAUGAAGUGAUGCAACACUGGAGCCGCUGGGAACUAAUUUGUAUGCGAAAGUAUAUUGAUUAGUUUUGGAGUACUCGUGGUCG
Procedure, shortened: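 Library with all eight P1ex-region intron nucleotides randomised, intron inside the knt kanamycin-resistance gene on pET-22b(+), in E. coli BL21(DE3). Cells grew overnight at 37°C or 30°C on LB agar with or without 25 μg/mL kanamycin (plus 100 μg/mL carbenicillin, 50 μM IPTG, 0.2% rhamnose), in six replicate transformations. Pooled colonies were amplicon-sequenced on Illumina HiSeq 2500. DiMSum fitness is the error-weighted combination of wild-type-normalised replicate fold changes, kanamycin versus none.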

Sequence | self-splicing fitness (ln) (37 °C) | self-splicing fitness (ln) (30 °C)
UUGUAGCAAUAUUACGCUAU | -1.46 ± 0.63 | –
GGGUAGCAAUAUUACGCGUC | – | -2.81 ± 1.1
UGUGAGCAAUAUUACGGGAC | -2.21 ± 0.79 | -1.27 ± 0.91
GCAUAGCAAUAUUACGCCGC | – | -5.03 ± 0.71
UUCGAGCAAUAUUACGUUAC | -2.18 ± 1.1 | –
UCAUAGCAAUAUUACGGUUC | -3.07 ± 1 | –
UUUAAGCAAUAUUACGCCCG | 0.00661 ± 0.87 | -3.27 ± 0.57
CUCAAGCAAUAUUACGACUC | -3.11 ± 0.63 | -3.67 ± 0.6
GCCGAGCAAUAUUACGCCGA | -1.07 ± 0.74 | -1.27 ± 1
CAAGAGCAAUAUUACGCCAC | -2.08 ± 1.1 | –
UGUGAGCAAUAUUACGGGAA | – | -2.56 ± 0.64
UCCUAGCAAUAUUACGGACC | -1.46 ± 0.53 | –
GUCGAGCAAUAUUACGGACC | -0.778 ± 1.4 | -3.4 ± 0.82
UGGGAGCAAUAUUACGUCAU | -3.61 ± 0.6 | -2.99 ± 0.55
ACGGAGCAAUAUUACGUGGG | -2.29 ± 0.15 | -3.99 ± 0.18
AAGGAGCAAUAUUACGAGCU | – | -4.04 ± 0.59
GUGUAGCAAUAUUACGCUGC | -1.08 ± 0.23 | -3.26 ± 0.27
CCGUAGCAAUAUUACGACCC | – | -3.35 ± 1
AGUAAGCAAUAUUACGAGAA | – | -2.01 ± 0.57
ACUGAGCAAUAUUACGAGCU | – | -4.94 ± 0.72
GUGGAGCAAUAUUACGAACC | -0.00289 ± 0.53 | -4.17 ± 1.1
GGUAAGCAAUAUUACGCUGG | -3.25 ± 0.73 | -4.39 ± 0.51
ACUUAGCAAUAUUACGUCCU | -0.132 ± 0.13 | -0.527 ± 0.085
UCAUAGCAAUAUUACGCGAU | -3.25 ± 0.74 | -1.9 ± 0.22

Sequence | self-splicing fitness (ln) (37 °C) | self-splicing fitness (ln) (30 °C)
UCCUAGCAAUAUUACGGAAC | – | -3.65 ± 0.6
UGCGAGCAAUAUUACGAGAC | -2.39 ± 1.1 | -3.16 ± 1
UAAUAGCAAUAUUACGCGGA | – | -2.99 ± 0.66
ACGUAGCAAUAUUACGCGAU | -1.5 ± 0.11 | -3.01 ± 0.14
UAUUAGCAAUAUUACGCCAG | 0.158 ± 0.54 | –
AUUGAGCAAUAUUACGGAAC | -3.9 ± 0.59 | –
CGUGAGCAAUAUUACGUCGU | – | -4.38 ± 0.52
UAAUAGCAAUAUUACGAUUC | – | -4.17 ± 0.51
CUUCAGCAAUAUUACGGUAG | -0.92 ± 0.14 | -1.94 ± 0.12
CGGGAGCAAUAUUACGGCUU | -2.56 ± 0.76 | -2.04 ± 0.57
CUUAAGCAAUAUUACGUUGA | – | -2.93 ± 0.63
GUUUAGCAAUAUUACGCGCU | -0.397 ± 0.44 | -1.52 ± 0.29
UCUAAGCAAUAUUACGAGCC | -2.58 ± 0.54 | –
CGAUAGCAAUAUUACGCGUC | – | -4.56 ± 1
GCGGAGCAAUAUUACGAAUA | – | -3.58 ± 1
UGCGAGCAAUAUUACGGCGU | -0.48 ± 0.2 | -2.58 ± 0.18
UACGAGCAAUAUUACGCCCU | -3.25 ± 1 | –
GCGGAGCAAUAUUACGAGAC | -2.83 ± 0.53 | –
GUAUAGCAAUAUUACGACGA | -0.483 ± 0.19 | -1.78 ± 0.24
ACAAAGCAAUAUUACGCGGG | -1.01 ± 0.09 | -2.47 ± 0.09
CCUAAGCAAUAUUACGACCC | -0.457 ± 0.56 | -4.2 ± 0.59
CCCGAGCAAUAUUACGGGAC | -1.89 ± 0.19 | -3.05 ± 0.18
UGGUAGCAAUAUUACGCGAC | – | -1.83 ± 0.59
GUUUAGCAAUAUUACGAGAU | -2.23 ± 1.1 | -0.826 ± 0.78

Sequence | self-splicing fitness (ln) (37 °C) | self-splicing fitness (ln) (30 °C)
GAAUAGCAAUAUUACGAGAU | -1.22 ± 0.14 | -3.86 ± 0.23
CUUAAGCAAUAUUACGCCCU | -1.96 ± 0.43 | -3.17 ± 0.32
UCAGAGCAAUAUUACGAAGC | -1.81 ± 0.83 | –
UAGGAGCAAUAUUACGUUGG | – | -4.42 ± 0.72
UGGCAGCAAUAUUACGCCUC | -0.0936 ± 0.56 | –
GCAAAGCAAUAUUACGCUUC | -2.39 ± 0.33 | -4.15 ± 0.33
CCCGAGCAAUAUUACGUGGC | – | -4.2 ± 0.51
GCGGAGCAAUAUUACGGUUU | – | -3.52 ± 0.54
UGCUAGCAAUAUUACGUAUC | – | -3.17 ± 0.74
UCUGAGCAAUAUUACGACCU | – | -4.64 ± 0.59
AUUGAGCAAUAUUACGCCGU | – | -2.53 ± 0.77
CAGAAGCAAUAUUACGUAGU | -1.97 ± 0.17 | -4.18 ± 0.24
CGCUAGCAAUAUUACGUUAA | -2.72 ± 0.62 | -4.81 ± 0.58
UUCAAGCAAUAUUACGCCGC | -1.4 ± 0.55 | -4.93 ± 1
CUGUAGCAAUAUUACGGCGC | -1.49 ± 0.51 | -3.53 ± 0.6
UGGUAGCAAUAUUACGAUAC | -1.97 ± 0.52 | -2.81 ± 1.1
CAGCAGCAAUAUUACGUUAC | – | -3.83 ± 0.6
CAGUAGCAAUAUUACGCUCC | – | -3.44 ± 0.54
CGGGAGCAAUAUUACGUUUC | -2.72 ± 0.62 | -3.92 ± 0.46
GCUGAGCAAUAUUACGUGAC | -2.05 ± 0.8 | -2.3 ± 0.8
UCAGAGCAAUAUUACGACCU | -3.04 ± 0.75 | –
AGUGAGCAAUAUUACGUAUC | -3.57 ± 0.52 | –
CUUAAGCAAUAUUACGAGAC | – | -3.91 ± 0.6
UUCGAGCAAUAUUACGCCCC | – | -2.57 ± 0.66

Sequence | self-splicing fitness (ln) (37 °C) | self-splicing fitness (ln) (30 °C)
UCGUAGCAAUAUUACGAAGU | -3.06 ± 0.35 | -3.58 ± 0.47
UCGGAGCAAUAUUACGCGCC | -1.28 ± 0.57 | –
UCGCAGCAAUAUUACGAUCG | -0.359 ± 0.12 | -0.735 ± 0.092
UCGGAGCAAUAUUACGACCU | – | -2.52 ± 0.8
GUUCAGCAAUAUUACGCACG | -0.682 ± 0.31 | -0.107 ± 0.22
AAAUAGCAAUAUUACGAUGG | -1.97 ± 0.2 | -2.87 ± 0.17
UGGGAGCAAUAUUACGCAUC | -2.58 ± 0.38 | -3 ± 0.32
CCAAAGCAAUAUUACGAUUG | -0.695 ± 0.081 | -1.36 ± 0.06
GCAGAGCAAUAUUACGCCUG | – | -4.23 ± 0.72
UCUCAGCAAUAUUACGCCGG | -1.59 ± 0.53 | –
UAACAGCAAUAUUACGUACA | -0.319 ± 0.092 | -0.576 ± 0.071
CGCGAGCAAUAUUACGACCC | -1.35 ± 0.51 | –
GACUAGCAAUAUUACGUGCA | -0.504 ± 0.068 | -0.898 ± 0.059
GAAAAGCAAUAUUACGAUGA | -0.295 ± 0.11 | -0.7 ± 0.1
CUCGAGCAAUAUUACGGGAG | – | -3.51 ± 0.77
CCCUAGCAAUAUUACGACCC | -1.54 ± 0.7 | -3.96 ± 1
CCGCAGCAAUAUUACGCUGG | -2.92 ± 0.24 | -2.24 ± 0.11
GGAGAGCAAUAUUACGCAUU | -2.72 ± 1 | –
CUUAAGCAAUAUUACGACCU | -1.47 ± 0.63 | –
CGCCAGCAAUAUUACGCCAC | – | -4.21 ± 0.51
GUCGAGCAAUAUUACGUUGU | – | -5.27 ± 1
AGUGAGCAAUAUUACGACUC | -3.46 ± 0.73 | –
UGGUAGCAAUAUUACGGUGC | -2.9 ± 1.1 | –
UUCCAGCAAUAUUACGGAAC | – | -3.11 ± 0.53

32 entries from above, as a markdown table:

| Sequence | self-splicing fitness (ln) (37 °C) | self-splicing fitness (ln) (30 °C) |
| --- | --- | --- |
| UUCAAGCAAUAUUACGCCGC | -1.4 ± 0.55 | -4.93 ± 1 |
| CUGUAGCAAUAUUACGGCGC | -1.49 ± 0.51 | -3.53 ± 0.6 |
| UGGUAGCAAUAUUACGAUAC | -1.97 ± 0.52 | -2.81 ± 1.1 |
| CAGCAGCAAUAUUACGUUAC | – | -3.83 ± 0.6 |
| CAGUAGCAAUAUUACGCUCC | – | -3.44 ± 0.54 |
| CGGGAGCAAUAUUACGUUUC | -2.72 ± 0.62 | -3.92 ± 0.46 |
| GCUGAGCAAUAUUACGUGAC | -2.05 ± 0.8 | -2.3 ± 0.8 |
| UCAGAGCAAUAUUACGACCU | -3.04 ± 0.75 | – |
| AGUGAGCAAUAUUACGUAUC | -3.57 ± 0.52 | – |
| CUUAAGCAAUAUUACGAGAC | – | -3.91 ± 0.6 |
| UUCGAGCAAUAUUACGCCCC | – | -2.57 ± 0.66 |
| UCGUAGCAAUAUUACGAAGU | -3.06 ± 0.35 | -3.58 ± 0.47 |
| UCGGAGCAAUAUUACGCGCC | -1.28 ± 0.57 | – |
| UCGCAGCAAUAUUACGAUCG | -0.359 ± 0.12 | -0.735 ± 0.092 |
| UCGGAGCAAUAUUACGACCU | – | -2.52 ± 0.8 |
| GUUCAGCAAUAUUACGCACG | -0.682 ± 0.31 | -0.107 ± 0.22 |
| AAAUAGCAAUAUUACGAUGG | -1.97 ± 0.2 | -2.87 ± 0.17 |
| UGGGAGCAAUAUUACGCAUC | -2.58 ± 0.38 | -3 ± 0.32 |
| CCAAAGCAAUAUUACGAUUG | -0.695 ± 0.081 | -1.36 ± 0.06 |
| GCAGAGCAAUAUUACGCCUG | – | -4.23 ± 0.72 |
| UCUCAGCAAUAUUACGCCGG | -1.59 ± 0.53 | – |
| UAACAGCAAUAUUACGUACA | -0.319 ± 0.092 | -0.576 ± 0.071 |
| CGCGAGCAAUAUUACGACCC | -1.35 ± 0.51 | – |
| GACUAGCAAUAUUACGUGCA | -0.504 ± 0.068 | -0.898 ± 0.059 |
| GAAAAGCAAUAUUACGAUGA | -0.295 ± 0.11 | -0.7 ± 0.1 |
| CUCGAGCAAUAUUACGGGAG | – | -3.51 ± 0.77 |
| CCCUAGCAAUAUUACGACCC | -1.54 ± 0.7 | -3.96 ± 1 |
| CCGCAGCAAUAUUACGCUGG | -2.92 ± 0.24 | -2.24 ± 0.11 |
| GGAGAGCAAUAUUACGCAUU | -2.72 ± 1 | – |
| CUUAAGCAAUAUUACGACCU | -1.47 ± 0.63 | – |
| CGCCAGCAAUAUUACGCCAC | – | -4.21 ± 0.51 |
| GUCGAGCAAUAUUACGUUGU | – | -5.27 ± 1 |

Additional records follow:

Sequence | self-splicing fitness (ln) (37 °C) | self-splicing fitness (ln) (30 °C)
ACCUAGCAAUAUUACGGAAC | -2.64 ± 0.54 | –
CUAGAGCAAUAUUACGGAAC | -2.3 ± 0.55 | –
CUCGAGCAAUAUUACGGCGC | -0.693 ± 0.71 | –
AACGAGCAAUAUUACGCUCC | -2.19 ± 0.64 | -2.47 ± 0.67
UGCGAGCAAUAUUACGGACC | -3.08 ± 0.74 | –
UUUCAGCAAUAUUACGAACC | – | -2.37 ± 0.64
GACAAGCAAUAUUACGAGGA | -2.42 ± 0.14 | -3.16 ± 0.21
CUCAAGCAAUAUUACGGCCC | -0.47 ± 0.68 | –
GUGAAGCAAUAUUACGUUGA | -0.398 ± 0.093 | -1.56 ± 0.078
UUGGAGCAAUAUUACGGUCG | -2.09 ± 0.65 | –
CGGCAGCAAUAUUACGCAAC | – | -4.42 ± 0.59
CAUGAGCAAUAUUACGCAGU | -2.63 ± 0.23 | -4.2 ± 0.39
UGGGAGCAAUAUUACGUACU | – | -4.29 ± 1.1
UAAGAGCAAUAUUACGCAAC | – | -3.16 ± 0.52
UUUCAGCAAUAUUACGCGCU | -1.8 ± 0.66 | –
ACCGAGCAAUAUUACGGUCC | -0.214 ± 0.61 | –
UCCGAGCAAUAUUACGGCCC | – | -2.57 ± 0.57
CUACAGCAAUAUUACGCUGA | -4 ± 0.59 | –
CCACAGCAAUAUUACGAGCG | 0.184 ± 0.065 | -0.707 ± 0.048
GGAGAGCAAUAUUACGCCGG | -0.458 ± 1 | –
AACCAGCAAUAUUACGCGUA | -0.313 ± 0.073 | -0.386 ± 0.063
AUAUAGCAAUAUUACGCGGC | -1.64 ± 0.6 | -3.07 ± 0.61

Reference: the supplement of paper PMC7877785
